# Reference: patent publication US20110039770A1, “INHIBITORS OF PROTEIN KINASE C ISOFORMS AND USES THEREOF” (PHARMAGAP INC., priority 2005, published 2011)
# By UniProt entry, the sequences of proteins in these tests, tags left out. Where a name states a change or a piece, a line headed by the entry shows the natural chain unless it says otherwise. Chains listed by the source or under a name are the forms on record and can include a tag or linker.
# UniProt P05771: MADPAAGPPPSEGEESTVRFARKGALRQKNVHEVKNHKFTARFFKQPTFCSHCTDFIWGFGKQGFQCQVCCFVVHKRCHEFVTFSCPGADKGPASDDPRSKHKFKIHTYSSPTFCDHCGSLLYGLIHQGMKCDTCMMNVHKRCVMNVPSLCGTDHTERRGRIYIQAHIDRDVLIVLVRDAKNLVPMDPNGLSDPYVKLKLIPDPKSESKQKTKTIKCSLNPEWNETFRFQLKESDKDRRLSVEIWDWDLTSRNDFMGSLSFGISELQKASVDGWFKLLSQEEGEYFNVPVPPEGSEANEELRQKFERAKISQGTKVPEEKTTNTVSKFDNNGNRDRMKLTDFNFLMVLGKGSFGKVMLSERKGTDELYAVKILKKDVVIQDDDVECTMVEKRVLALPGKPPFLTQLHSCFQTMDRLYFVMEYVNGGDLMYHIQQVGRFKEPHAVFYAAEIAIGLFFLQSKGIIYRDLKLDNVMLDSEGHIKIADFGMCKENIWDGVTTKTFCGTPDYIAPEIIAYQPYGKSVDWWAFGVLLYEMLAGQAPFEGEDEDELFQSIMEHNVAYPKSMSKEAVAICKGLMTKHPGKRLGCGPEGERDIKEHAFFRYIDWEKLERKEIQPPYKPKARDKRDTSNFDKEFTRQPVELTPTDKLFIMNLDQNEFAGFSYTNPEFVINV
# PKC-βII in extracts of human cell lines (P05771, form named): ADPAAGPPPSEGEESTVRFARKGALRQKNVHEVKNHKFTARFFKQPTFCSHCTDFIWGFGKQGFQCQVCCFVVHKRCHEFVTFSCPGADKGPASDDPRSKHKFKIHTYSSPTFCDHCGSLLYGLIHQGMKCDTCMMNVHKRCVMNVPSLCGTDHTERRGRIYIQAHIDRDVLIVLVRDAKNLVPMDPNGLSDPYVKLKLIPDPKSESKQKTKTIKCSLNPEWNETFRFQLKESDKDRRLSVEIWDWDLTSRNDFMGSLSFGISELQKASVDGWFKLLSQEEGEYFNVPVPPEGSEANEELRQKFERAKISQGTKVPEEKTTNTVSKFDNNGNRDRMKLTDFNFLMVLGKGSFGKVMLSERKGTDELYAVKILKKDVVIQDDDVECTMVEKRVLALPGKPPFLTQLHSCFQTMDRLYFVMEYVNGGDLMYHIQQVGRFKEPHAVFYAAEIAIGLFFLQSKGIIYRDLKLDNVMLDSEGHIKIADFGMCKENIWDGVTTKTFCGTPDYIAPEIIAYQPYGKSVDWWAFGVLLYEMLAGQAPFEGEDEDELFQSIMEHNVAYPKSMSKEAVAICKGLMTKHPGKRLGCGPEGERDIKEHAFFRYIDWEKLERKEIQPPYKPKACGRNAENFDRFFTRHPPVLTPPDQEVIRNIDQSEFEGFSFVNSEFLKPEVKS
# PKC-βII, purified isoform (P05771, form named): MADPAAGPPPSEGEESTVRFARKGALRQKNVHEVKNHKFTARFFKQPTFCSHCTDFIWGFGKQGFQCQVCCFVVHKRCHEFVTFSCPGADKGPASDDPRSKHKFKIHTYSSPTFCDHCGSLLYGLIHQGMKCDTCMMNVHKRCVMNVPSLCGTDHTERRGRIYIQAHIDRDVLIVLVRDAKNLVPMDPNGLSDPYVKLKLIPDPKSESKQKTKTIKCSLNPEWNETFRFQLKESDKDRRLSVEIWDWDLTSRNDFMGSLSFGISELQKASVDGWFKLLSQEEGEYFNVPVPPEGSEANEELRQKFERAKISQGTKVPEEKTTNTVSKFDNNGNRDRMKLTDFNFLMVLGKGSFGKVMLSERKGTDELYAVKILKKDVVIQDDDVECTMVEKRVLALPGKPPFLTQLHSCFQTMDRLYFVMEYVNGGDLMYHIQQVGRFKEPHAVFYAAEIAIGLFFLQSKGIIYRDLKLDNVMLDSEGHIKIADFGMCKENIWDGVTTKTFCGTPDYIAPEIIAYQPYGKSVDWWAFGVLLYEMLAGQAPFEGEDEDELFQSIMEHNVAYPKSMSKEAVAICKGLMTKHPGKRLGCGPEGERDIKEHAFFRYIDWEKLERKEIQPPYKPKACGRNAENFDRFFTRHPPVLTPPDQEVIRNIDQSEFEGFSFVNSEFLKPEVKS
# UniProt Q02156: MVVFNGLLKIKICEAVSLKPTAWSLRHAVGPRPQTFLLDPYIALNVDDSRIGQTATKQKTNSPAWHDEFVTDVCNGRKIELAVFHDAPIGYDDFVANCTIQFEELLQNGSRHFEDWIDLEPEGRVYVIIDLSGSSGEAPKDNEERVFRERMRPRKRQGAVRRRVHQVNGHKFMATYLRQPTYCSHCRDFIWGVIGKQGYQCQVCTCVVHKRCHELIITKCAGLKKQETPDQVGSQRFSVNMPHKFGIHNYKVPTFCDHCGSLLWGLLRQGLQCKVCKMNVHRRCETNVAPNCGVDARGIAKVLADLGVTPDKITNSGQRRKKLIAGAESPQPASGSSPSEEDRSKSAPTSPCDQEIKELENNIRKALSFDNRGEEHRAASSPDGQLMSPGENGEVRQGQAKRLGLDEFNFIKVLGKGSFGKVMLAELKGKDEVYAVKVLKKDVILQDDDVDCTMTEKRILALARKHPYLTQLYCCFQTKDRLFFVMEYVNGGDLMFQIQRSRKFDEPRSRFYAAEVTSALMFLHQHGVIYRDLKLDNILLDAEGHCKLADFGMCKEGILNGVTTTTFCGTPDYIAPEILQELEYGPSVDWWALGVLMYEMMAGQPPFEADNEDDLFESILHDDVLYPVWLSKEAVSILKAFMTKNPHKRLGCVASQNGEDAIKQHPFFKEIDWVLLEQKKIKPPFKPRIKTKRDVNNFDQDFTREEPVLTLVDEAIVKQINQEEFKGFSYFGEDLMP
# No constants are given. Whether binding was seen depends on the method and setting. Some binding calls cover weakened binding; strength is not graded here.
# T1: PKC-ζ in extracts of human cell lines (human) (UniProt Q05513)
# T1 sequence (looked up): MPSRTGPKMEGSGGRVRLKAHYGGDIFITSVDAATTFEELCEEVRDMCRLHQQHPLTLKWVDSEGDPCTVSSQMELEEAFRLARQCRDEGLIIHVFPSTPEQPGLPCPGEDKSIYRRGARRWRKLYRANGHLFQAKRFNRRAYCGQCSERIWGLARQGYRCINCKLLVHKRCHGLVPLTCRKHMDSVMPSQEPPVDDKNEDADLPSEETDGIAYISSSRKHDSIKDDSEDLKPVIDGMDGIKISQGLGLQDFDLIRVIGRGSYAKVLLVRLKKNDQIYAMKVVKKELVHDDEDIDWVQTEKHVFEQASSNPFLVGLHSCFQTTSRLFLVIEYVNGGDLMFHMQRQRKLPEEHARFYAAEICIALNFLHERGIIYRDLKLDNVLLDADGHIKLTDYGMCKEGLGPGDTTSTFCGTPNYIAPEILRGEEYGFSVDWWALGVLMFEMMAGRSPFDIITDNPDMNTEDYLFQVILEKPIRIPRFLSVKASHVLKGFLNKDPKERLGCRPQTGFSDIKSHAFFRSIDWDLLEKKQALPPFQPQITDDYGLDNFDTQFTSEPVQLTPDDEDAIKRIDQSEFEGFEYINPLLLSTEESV
# Tests used:
# [1] = molecular target: PKC-βII in extracts of human cell lines (human) (UniProt P05771); test: cell extract Western blot competition, summary grade
# [2] = molecular target: PKC-βII in extracts of human cell lines (human) (UniProt P05771); test: Western-blot competition, cell extracts: PRE at 10X/20X the anti-PKC beta II primary antibody concentration competes with that antibody; band densitometry (lower band = PRE bound)
# [3] = molecular target: PKC-βII in extracts of human cell lines (human) (UniProt P05771); test: Western-blot competition, cell extracts, catalytic fragment band: PRE at 10X/20X the anti-PKC beta II primary antibody concentration competes with that antibody; band densitometry (lower band = PRE bound)
# [4] = molecular target: PKC-α, purified isoform (UniProt P17252); test: competitive ELISA, purified isoform
# [5] = molecular target: PKC-βII (endogenous, IMR-32 lysate) (human) (UniProt P05771); test: Western competition Protocol B, IMR-32 extract
# [6] = molecular target: T1, PKC-ζ in extracts of human cell lines (human); test: cell extract Western blot competition, summary grade
# [7] = molecular target: PKC-βII, purified isoform (UniProt P05771); test: purified isoform competition ELISA, summary grade
# [8] = molecular target: PKC-βI, purified isoform (UniProt P05771); test: purified isoform competition ELISA, summary grade
# [9] = molecular target: PKC-α, purified isoform (UniProt P17252); test: purified isoform competition ELISA, summary grade
# [10] = molecular target: PKC-ε (endogenous, IMR-32 lysate) (human) (UniProt Q02156); test: Western competition Protocol B, IMR-32 extract
# [11] = molecular target: PKC-βI, purified isoform (UniProt P05771); test: competitive ELISA, purified isoforms
# [12] = molecular target: PKC-α, purified isoform (UniProt P17252); test: competitive ELISA, purified isoforms
# [13] = molecular target: PKC-βI, purified isoform (UniProt P05771); test: competitive ELISA, purified isoform
# [14] = molecular target: PKC-ε, purified isoform (UniProt Q02156); test: purified isoform competition ELISA, summary grade
binder,measurement,setting,value
ILEDKGGDAQNLIGISI [PRE 8],binding,[1],binds
same,binding,[2],binds
KDAQNLI (N-terminal acetyl (Ac-); C-terminal amide (-NH2)) [PRE 12],binding,[3],binds
same,binding,[1],binds
AKGIQEVKGGKDAQNLIGISI (N-terminal acetyl (Ac-); C-terminal amide (-NH2)) [PRE 5],binding,[1],binds
same,binding,[2],binds
KDAQNLIGISI (N-terminal acetyl (Ac-); C-terminal amide (-NH2)) [PRE 4],binding,[3],binds
same,binding,[4],binds
same,binding,[5],binds
same,binding,[1],binds
same,binding,[6],no binding
same,binding,[7],binds
same,binding,[8],binds
same,binding,[9],binds
KDAQNLIGISL (C-terminal amide (-NH2)) [PRE 2],binding,[10],binds
AKGIQEVKGGDAQNLIGISI (N-terminal acetyl (Ac-); C-terminal amide (-NH2)) [PRE 3],binding,[11],binds
same,binding,[12],binds
same,binding,[13],binds
same,binding,[4],binds
same,binding,[10],binds
same,binding,[14],binds
same,binding,[8],binds
same,binding,[9],binds
RRKKGGKDFVVKR [PRE 1],binding,[13],binds
same,binding,[8],binds
KDANQLIGISI (N-terminal acetyl (Ac-); C-terminal amide (-NH2)) [PRE 6],binding,[8],binds
ISIGILQNADK (N-terminal acetyl (Ac-); C-terminal amide (-NH2)) [PRE 7],binding,[9],binds
ISIGILNQADK (N-terminal acetyl (Ac-); C-terminal amide (-NH2)) [PRE 10],binding,[7],binds
RDAQNLIGISI (N-terminal acetyl (Ac-); C-terminal amide (-NH2)) [PRE 11],binding,[9],binds
